The values that follow come from article PMC7288954.

Protein sequences, listed by entry. Tags and fused reporters are not part of them.
UniProt Q5PQN5: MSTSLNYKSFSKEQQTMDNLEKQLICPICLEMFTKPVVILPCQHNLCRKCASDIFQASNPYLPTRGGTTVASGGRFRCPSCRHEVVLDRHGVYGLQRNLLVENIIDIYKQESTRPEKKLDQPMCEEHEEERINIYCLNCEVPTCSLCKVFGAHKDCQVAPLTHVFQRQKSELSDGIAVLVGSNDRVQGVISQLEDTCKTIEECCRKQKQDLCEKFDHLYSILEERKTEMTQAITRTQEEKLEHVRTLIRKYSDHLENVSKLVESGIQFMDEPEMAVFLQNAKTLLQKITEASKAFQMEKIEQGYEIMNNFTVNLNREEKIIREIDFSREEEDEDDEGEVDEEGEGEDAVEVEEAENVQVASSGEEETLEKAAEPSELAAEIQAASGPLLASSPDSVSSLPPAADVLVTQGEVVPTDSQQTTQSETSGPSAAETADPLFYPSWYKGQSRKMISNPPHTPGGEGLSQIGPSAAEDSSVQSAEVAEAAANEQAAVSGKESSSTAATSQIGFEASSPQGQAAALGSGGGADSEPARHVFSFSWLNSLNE

These are yes or no findings as the source states them, for the method shown. Binding seen in cells or lysates may run through a third protein. Some results given as binding are weak or reduced against the parent protein; the word gives no strength.

The target of this experiment is T1, dual-specificity protein phosphatase 1 (rat (endogenous in H9C2)) (UniProt Q64623).
T1 sequence: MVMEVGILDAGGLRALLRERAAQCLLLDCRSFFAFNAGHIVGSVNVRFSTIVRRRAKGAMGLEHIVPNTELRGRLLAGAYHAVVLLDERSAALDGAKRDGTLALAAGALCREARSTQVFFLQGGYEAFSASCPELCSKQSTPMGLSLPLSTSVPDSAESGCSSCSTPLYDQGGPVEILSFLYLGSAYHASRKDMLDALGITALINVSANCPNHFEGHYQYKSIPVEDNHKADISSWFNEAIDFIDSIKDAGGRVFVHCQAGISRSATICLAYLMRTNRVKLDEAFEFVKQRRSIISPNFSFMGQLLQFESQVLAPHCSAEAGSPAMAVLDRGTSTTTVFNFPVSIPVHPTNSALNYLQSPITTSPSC
Nature of the experiment: co-IP; H9C2 whole-cell lysates incubated with 2 ug anti-TRIM55, anti-DUSP1 or normal IgG and protein G-agarose beads at 4 C overnight; SDS-PAGE and blotting.

With TRIM55 (from UniProt Q5PQN5 1-545), the binding result is “binds”.
